Results from publication PMC8790530.
No constants are given. Whether binding was seen depends on the method and setting. In cells and extracts the contact can be indirect. Some entries that bind do so weakly or less than the wild type. Where a sequence is shown, tags or fusion partners need not be part of it.

The chains behind the UniProt entries cited, without tags or fusion partners.
UniProt Q9UBN7: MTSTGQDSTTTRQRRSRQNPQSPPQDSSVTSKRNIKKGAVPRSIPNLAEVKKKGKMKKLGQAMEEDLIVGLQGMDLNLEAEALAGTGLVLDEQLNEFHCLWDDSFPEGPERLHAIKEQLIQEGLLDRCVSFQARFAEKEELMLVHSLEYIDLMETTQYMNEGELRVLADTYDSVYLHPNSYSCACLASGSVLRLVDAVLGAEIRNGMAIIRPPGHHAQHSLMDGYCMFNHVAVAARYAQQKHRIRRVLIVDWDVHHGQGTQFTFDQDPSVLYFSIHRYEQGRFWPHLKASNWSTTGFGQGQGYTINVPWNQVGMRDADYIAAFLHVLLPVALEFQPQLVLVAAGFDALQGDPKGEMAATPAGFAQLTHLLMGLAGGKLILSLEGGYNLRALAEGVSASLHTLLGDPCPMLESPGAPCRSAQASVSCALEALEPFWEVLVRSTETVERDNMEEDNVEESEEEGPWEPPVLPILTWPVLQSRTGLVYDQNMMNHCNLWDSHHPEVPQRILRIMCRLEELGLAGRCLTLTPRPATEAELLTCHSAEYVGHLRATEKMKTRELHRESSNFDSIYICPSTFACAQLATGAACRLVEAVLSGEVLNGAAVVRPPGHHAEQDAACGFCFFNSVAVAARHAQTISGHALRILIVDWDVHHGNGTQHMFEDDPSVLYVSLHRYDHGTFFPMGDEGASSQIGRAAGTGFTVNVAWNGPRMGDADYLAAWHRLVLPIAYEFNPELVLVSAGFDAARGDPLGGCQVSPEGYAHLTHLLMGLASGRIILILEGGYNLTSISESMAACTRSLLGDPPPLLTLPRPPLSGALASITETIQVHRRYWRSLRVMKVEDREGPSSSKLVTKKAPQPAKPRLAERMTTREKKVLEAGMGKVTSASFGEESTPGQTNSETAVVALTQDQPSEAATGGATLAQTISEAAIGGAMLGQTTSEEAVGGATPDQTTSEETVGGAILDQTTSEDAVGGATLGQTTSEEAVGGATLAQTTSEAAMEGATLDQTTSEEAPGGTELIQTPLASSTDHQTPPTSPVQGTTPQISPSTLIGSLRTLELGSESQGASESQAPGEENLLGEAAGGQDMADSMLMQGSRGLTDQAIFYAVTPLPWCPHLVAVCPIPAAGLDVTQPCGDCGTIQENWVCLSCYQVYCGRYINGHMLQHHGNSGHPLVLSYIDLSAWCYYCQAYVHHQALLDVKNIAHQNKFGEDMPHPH

B1: GFP-(GA)50 (protein)
chain: GAGAGAGAGAGAGAGAGAGAGAGAGAGAGAGAGAGAGAGAGAGAGAGAGAGAGAGAGAGAGAGAGAGAGAGAGAGAGAGAGAGAGAGAGAGAGAGAGAGA
B2: GFP-(GP)47 (protein)
chain: GPGPGPGPGPGPGPGPGPGPGPGPGPGPGPGPGPGPGPGPGPGPGPGPGPGPGPGPGPGPGPGPGPGPGPGPGPGPGPGPGPGPGPGPGPGPGP
B3: GFP-(GR)50 (protein)
chain: GRGRGRGRGRGRGRGRGRGRGRGRGRGRGRGRGRGRGRGRGRGRGRGRGRGRGRGRGRGRGRGRGRGRGRGRGRGRGRGRGRGRGRGRGRGRGRGRGRGR

Molecular target: Myc-tagged wild-type HDAC6 (histone deacetylase 6) (human) (UniProt Q9UBN7)
Test: co-IP; HEK293T cells co-transfected for 48 h with Myc-tagged HDAC6WT and GFP or a GFP-tagged DPR construct; lysed in co-IP buffer (50 mM Tris-HCl, pH 7.4, 300 mM NaCl, 1% Triton X-100, 5 mM EDTA); anti-Myc antibody overnight at 4°C, captured on Dynabeads Protein G; Western blot for myc or GFP

| Binder | binding |
| --- | --- |
| B1 | binds |
| B2 | no binding |
| B3 | no binding |
